The results in this text go back to patent US11559517B2, “Promotion of epithelial repair” (Telethon Kids Institute, priority 2018, dated 2023).

Structures are written as SMILES.

The test deals with pAEC from asthmatic children. In words: Scratch wound repair assay (wound closure), pAEC from asthmatic children. The format is cell-based, human. As to conditions: screen at 10 μM; cohort not given. As for the experimental part:
Two in vitro scratch wound models were used. […] Wound closure was calculated through image analysis by the accompanying live-cell imaging system (Essen Bioscience, Ann Arbor, Mich., USA).
To assess in vitro wound repair kinetics, linear scratch wounds were created using a commercial monolayer wounding kit. Once confluent, cell cultures were placed in starvation media (BEGM™ without epidermal growth factor) for about 24 hours prior to wounding. At the time of wounding, cell cultures were treated with compound dilution (10 μM), DMSO vehicle (0.05% v/v) or untreated. Wound closure rates were calculated through image analysis by the accompanying live-cell imaging system (Essen Bioscience, Ann Arbor, Mich., USA).

Consider `NS(=O)(=O)c1ccc(-n2nc(C(F)(F)F)cc2-c2ccccc2)cc1` [Compound C5, Desmethyl Celecoxib], for which the “promotion of pAEC repair relative to celecoxib” value is “comparable efficacy”.
